Test results as given in PMC3374797, “Intrinsically Unstructured Domain 3 of Hepatitis C Virus NS5A Forms a “Fuzzy Complex” with VAPB-MSP Domain Which Carries ALS-Causing Mutations” (PLoS ONE, 2012).
These are yes or no findings as the source states them, for the method shown. For some assays here: Binding can be weak; no strength is given.

Sequences of proteins named here, by UniProt entry; tags and fusion partners are left off. A change or cut given only in a name is not applied to a line headed by its entry.
UniProt P54764: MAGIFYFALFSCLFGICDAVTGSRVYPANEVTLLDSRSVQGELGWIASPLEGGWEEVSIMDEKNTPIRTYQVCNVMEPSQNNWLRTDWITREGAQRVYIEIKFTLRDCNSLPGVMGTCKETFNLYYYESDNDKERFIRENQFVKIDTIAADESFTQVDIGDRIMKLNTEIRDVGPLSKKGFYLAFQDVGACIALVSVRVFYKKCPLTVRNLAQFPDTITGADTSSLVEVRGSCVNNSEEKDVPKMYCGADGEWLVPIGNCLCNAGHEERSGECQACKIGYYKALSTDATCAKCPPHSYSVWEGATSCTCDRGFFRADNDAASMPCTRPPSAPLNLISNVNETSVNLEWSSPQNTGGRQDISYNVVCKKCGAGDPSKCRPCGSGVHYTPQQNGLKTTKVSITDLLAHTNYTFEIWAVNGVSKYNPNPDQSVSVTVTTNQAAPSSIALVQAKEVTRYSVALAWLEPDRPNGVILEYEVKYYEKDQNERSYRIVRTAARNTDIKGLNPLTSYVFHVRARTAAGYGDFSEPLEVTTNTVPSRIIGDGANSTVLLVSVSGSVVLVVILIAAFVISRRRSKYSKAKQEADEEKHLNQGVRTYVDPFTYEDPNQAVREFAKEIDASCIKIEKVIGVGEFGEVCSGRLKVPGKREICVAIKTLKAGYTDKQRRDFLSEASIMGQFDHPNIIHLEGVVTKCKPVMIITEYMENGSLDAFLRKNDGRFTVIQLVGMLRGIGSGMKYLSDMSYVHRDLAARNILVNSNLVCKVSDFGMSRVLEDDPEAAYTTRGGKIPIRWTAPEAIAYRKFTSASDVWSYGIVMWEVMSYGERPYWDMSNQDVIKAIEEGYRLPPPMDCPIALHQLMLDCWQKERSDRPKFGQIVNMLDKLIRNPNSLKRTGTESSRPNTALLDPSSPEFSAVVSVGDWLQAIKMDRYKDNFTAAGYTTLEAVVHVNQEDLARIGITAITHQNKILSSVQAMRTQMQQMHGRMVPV

What was measured:
VAPB-CC(151–195) (human) = target: T1, VAPB-CC(151–195) (human) (UniProt O95292); assay: NMR titration; both purified
T1 sequence: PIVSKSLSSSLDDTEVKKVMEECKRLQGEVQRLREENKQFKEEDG

VAPB-MSP(1–125) = VAPB-MSP(1–125) (Homo sapiens, UniProt O95292); assay: NMR titration; both purified

For NS5A(313–366) (domain or fragment), the binding (VAPB-CC(151–195) (human)) was “no binding”.

NS5A(33–447) (domain or fragment) was tested, and the binding (VAPB-CC(151–195) (human)) was “no binding (tested: molar ratio 1:2.5 (VAPB-CC/NS5A))”.

In the case of “EphA4 ligand-binding domain (LBD) (from UniProt P54764) (domain or fragment)”, the binding (VAPB-MSP(1–125)) was “binds”.

NS5A(251–380) (domain or fragment) was tested, and the binding (VAPB-CC(151–195) (human)) was “no binding”.

NS5A(300–447) (domain or fragment) was tested, and the binding (VAPB-CC(151–195) (human)) was “no binding (tested: molar ratio 1:4 (VAPB/NS5A))”.
